Measurements taken from article PMC10907374, “G2019S selective LRRK2 kinase inhibitor abrogates mitochondrial DNA damage” (NPJ Parkinson's Disease, 2024).

Chains of the proteins cited; added tags and fusions are not shown.
UniProt Q5S007, whole entry G2019S: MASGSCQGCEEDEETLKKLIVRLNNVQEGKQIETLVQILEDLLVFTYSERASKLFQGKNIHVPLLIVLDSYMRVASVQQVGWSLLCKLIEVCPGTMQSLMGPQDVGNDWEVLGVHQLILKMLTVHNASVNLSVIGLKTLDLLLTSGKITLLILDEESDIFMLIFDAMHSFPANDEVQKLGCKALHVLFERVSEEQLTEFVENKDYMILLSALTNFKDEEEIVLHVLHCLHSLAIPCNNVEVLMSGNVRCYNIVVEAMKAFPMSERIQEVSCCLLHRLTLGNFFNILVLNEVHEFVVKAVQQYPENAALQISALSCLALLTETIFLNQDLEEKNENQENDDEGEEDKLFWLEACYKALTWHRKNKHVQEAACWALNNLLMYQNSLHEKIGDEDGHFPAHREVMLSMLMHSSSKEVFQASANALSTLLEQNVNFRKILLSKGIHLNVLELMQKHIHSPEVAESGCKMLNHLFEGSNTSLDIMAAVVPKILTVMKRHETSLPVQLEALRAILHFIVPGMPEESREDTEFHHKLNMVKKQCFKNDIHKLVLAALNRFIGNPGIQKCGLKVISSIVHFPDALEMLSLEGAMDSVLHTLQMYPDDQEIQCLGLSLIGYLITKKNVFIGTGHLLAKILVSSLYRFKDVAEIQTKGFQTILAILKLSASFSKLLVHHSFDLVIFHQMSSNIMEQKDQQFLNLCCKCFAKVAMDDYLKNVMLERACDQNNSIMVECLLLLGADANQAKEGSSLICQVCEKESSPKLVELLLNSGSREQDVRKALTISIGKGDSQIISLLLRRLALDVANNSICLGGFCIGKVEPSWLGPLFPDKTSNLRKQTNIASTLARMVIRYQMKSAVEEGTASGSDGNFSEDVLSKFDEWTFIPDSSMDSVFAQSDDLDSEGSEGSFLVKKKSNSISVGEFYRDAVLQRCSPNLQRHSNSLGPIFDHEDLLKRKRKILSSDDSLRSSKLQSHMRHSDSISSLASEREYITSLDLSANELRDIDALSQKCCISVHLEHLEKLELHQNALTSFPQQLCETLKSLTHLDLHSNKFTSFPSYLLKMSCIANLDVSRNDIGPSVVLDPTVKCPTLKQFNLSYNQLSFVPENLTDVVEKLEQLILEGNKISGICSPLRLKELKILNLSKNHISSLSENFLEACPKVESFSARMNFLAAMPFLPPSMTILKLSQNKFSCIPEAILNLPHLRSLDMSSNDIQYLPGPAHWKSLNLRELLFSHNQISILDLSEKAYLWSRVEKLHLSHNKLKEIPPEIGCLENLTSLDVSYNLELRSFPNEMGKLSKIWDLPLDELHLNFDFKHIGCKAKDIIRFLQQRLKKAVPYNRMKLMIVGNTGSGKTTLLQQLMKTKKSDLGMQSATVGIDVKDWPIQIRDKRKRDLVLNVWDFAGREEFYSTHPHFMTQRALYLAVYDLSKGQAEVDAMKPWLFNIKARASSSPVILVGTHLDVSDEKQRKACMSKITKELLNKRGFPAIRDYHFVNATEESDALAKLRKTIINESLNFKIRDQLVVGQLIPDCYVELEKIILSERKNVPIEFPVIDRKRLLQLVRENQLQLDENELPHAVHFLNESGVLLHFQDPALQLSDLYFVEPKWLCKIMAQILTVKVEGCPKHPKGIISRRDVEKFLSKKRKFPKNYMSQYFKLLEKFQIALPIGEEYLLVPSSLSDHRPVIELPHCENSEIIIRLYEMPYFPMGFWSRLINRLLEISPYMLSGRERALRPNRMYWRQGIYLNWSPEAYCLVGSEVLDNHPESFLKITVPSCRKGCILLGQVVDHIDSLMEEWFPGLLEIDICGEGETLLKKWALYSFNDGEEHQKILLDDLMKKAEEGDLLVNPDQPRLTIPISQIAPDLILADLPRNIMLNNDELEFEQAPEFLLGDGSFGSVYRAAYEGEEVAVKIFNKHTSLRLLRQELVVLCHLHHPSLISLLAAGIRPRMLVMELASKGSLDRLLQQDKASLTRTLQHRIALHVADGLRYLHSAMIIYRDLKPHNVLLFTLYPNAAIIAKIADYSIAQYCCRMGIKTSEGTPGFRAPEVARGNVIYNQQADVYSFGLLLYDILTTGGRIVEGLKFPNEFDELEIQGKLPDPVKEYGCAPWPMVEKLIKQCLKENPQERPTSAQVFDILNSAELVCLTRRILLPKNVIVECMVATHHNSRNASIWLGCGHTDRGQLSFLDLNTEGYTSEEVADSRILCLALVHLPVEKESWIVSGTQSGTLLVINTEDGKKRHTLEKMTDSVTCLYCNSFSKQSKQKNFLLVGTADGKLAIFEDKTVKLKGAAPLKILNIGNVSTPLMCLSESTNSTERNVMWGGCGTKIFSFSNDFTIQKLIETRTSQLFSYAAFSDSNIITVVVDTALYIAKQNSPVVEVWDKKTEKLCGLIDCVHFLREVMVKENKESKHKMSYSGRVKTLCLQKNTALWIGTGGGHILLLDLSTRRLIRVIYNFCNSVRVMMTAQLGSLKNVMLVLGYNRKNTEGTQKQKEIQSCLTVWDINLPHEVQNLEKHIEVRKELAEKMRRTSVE

Biological target: G2019S variant of human LRRK2 (G2019S-LRRK2) (Homo sapiens, UniProt Q5S007, G2019S)
Experiment: LRRK2 pSer935 quantitative western immunoblot in HEK293 cells stably overexpressing G2019S-LRRK2
Format: cell-based
Details: 2 h

`CC1=C(C(=O)Nc2ccc3[nH]nc(-c4ccnc(N5CCOCC5)c4)c3c2)C(C)(C)n2nnnc2N1C` [EB-42168] was tested, and the “decrease in LRRK2 pSer935 levels” value (100 nM) was “over 50% and 65%” and the “decrease in LRRK2 pSer935 levels” value (1 μM) was “full inhibition and 95%”.

Certain results were filed several times, with different values. They are shown here; other results are not. There may be further records. The records of an entry differ for a reason that is not stated; dose, time, organism, isomer or construct need not be as stated for each record.
